According to patent publication US12419905B2, “Methods and compositions for the treatment of amyloid-related disorders” (YALE UNIVERSITY, priority 2018, dated 2025):
At least one structure is not confirmed: it was looked up by name or label, or the drawing left a doubt.

System: Aßo/PrP^C interaction in stably PrP^C-transfected CV1 cells
Type: cell-based, rat

C=CC1=C(C(=O)O)N2C(=O)[C@@H](NC(=O)/C(=N\O)c3csc(N)n3)[C@H]2SC1 [cefdinir]
Aßo/PrP^C interaction-inhibiting activity, aged drug: zero activity
Aßo/PrP^C interaction-inhibiting activity, fresh drug: zero activity

C=CC1=C(C(=O)O)N2C(=O)[C@@H](NC(=O)/C(=N\OCC(=O)O)c3csc(N)n3)[C@H]2SC1 [cefixime]
Aßo/PrP^C interaction-inhibiting activity, aged drug: exhibited activity
Aßo/PrP^C interaction-inhibiting activity, fresh drug: neither fresh cefixime nor a range of other cephalosporins were found to possess inhibitory activity
inhibition of Aßo/PrP^C interaction in high throughput screen: highly inhibitory
